Primary screen of a compound library

Sequences of proteins named here, by UniProt entry; tags and fusion partners are left off.
UniProt E9BF75, entry or part of it: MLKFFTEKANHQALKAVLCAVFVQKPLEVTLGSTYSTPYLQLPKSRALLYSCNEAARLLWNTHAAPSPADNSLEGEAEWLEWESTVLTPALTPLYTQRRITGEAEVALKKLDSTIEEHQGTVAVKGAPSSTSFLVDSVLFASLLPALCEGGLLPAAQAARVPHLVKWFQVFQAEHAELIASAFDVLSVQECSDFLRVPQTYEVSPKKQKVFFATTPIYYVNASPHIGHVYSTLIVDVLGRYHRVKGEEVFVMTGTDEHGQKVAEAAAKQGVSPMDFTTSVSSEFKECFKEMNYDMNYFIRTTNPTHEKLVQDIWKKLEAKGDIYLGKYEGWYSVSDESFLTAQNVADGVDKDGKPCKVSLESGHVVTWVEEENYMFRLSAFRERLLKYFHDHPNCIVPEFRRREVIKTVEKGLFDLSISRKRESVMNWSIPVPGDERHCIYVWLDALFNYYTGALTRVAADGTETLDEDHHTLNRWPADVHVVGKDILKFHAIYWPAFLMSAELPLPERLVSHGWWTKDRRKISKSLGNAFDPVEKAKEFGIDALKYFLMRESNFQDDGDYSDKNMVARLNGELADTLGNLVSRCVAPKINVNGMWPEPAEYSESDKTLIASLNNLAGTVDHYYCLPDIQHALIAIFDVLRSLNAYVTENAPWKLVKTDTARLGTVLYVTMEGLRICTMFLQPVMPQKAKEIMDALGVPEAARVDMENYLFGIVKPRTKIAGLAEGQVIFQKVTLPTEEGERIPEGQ

Measurements from “University of Dundee, Small-Polar-MMV Screening Library” (2021), ChEMBL document CHEMBL3988442.

LdMetRS: 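Primary screen of methionyl-tRNA synthetase; the read-out is not stated. Target: Methionyl-tRNA synthetase (putative), Leishmania donovani (UniProt E9BF75). The test concentration is not given. Values are per cent inhibition. Of about 68,000 compounds tested this way, about 24 (0.035%) reached 50% or more in at least one test.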
Mtb heat-shock: 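Assay on Mycobacterium tuberculosis, filed only as a heat shock assay from Cornell; the read-out is not stated. The concentration is filed as 10 mM, unlikely as a test dose, so the dose is not known. Higher reads as stronger inhibition (inferred: compounds with an IC50 in retests scored well above the rest). Size under these conditions: about 69,000 compounds, about 930 of them at 50% or above in at least one test.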

All values are in %.
The controls that fix the scale are not given in the record; negative values are as filed.
The compounds are a random part of those screened.
A dash means the value is not listed here; it may have been measured.

structure	LdMetRS	Mtb heat-shock
CC1c2ncc(Cn3cccn3)n2CCN1c1ncccn1.O=C(O)C(F)(F)F (stereo not drawn)	-	40.47
Cc1ccccc1C(N)c1ccncc1 (stereo not drawn)	11.64	-
COc1cc(CN(C)[C@@H]2COC[C@H]2c2ccc(F)cc2)cc(OC)c1	16.28	-
O=C(CCNS(=O)(=O)c1ccccc1)N1CCOC(c2ccccc2)C1 (stereo not drawn)	11.35	-10.04
CC(C)NC(=O)C1(Cc2ccccc2-c2cncnc2)CCCNC1 (stereo not drawn)	11.63	-9.672
O=C(O)c1ccnc(-c2ccnc(N3CCCCCC3)n2)c1	10.2	-11.65
Cc1cc(-c2cnc(N3CCCC(C)C3)nc2-c2cccnc2C)on1 (stereo not drawn)	4.452	-
Cc1ccc(CN2C[C@H](OCCN(C)C)[C@H]3OCCC[C@H]32)o1	7.971	-
CSC1(CNC(=O)NC(C)c2ccc(F)c(F)c2)CCOCC1 (stereo not drawn)	6.211	-9.796
Cc1nc(CN2C[C@@H]3CN(C(=O)c4ccnnc4)C[C@@H]3C2=O)cs1	13.13	-
CN(C)CCOCc1nnc2n1CCN(c1cnccn1)CC2	9.408	-5.003
CC(C)N(C)C[C@H]1C[C@@H]2CN(Cc3ccco3)C[C@@H]2O1	17.93	-
Cc1noc(C)c1-c1ccnc(C2CCNCC2)c1	19.35	5.917
COc1ccccc1C(=O)Nc1ccc([C@@H](O)[C@H]2COCC(=O)N2)cc1	-18.8	-
CC(c1ccc(S(C)(=O)=O)cc1)N(C)C(=O)c1ccccc1I (stereo not drawn)	6.137	-21.61
Cc1noc([C@H]2C[C@H]3OCC[C@H]3N(S(C)(=O)=O)C2)n1	17.79	-
O=C(NCC(O)COc1ccccc1)Nc1nncs1 (stereo not drawn)	4.393	-0.1378
CCOc1ccc(N2CCCN=C2NC(=O)c2cccc(C)c2)cc1	-1.759	3.738
COc1ccc2cc(C(=O)NCCNc3ccc(C)nn3)[nH]c2c1	15.72	-7.586
CC(=O)NCC(=O)N1CCCC2(CCC(=O)N(CCc3c[nH]cn3)C2)C1 (stereo not drawn)	-3.763	-9.182
Cc1ccc(N2CCC3(CN(CCO)CCC3(F)F)C2)nn1.O=C(O)C(F)(F)F (stereo not drawn)	-	6.658
O=C(Nc1cccc(CN2CCOC2=O)c1)N1CCSCC1	16.81	6.438
Cc1ccsc1C(=O)N1CCC2(CC1)C(=O)N(C)CCN2CC1CC1	6.452	-
CN1C(=O)CC2(CCN(S(=O)(=O)C3CC3)CC2)c2ccccc21	7.609	-24
Cc1ccc(-c2nnc(CN3CC(n4cc(C)cn4)C3)o2)cc1	13.46	12.52
Cc1ccc(C)c2c(=O)cc(CN3CC[C@@H](N)[C@H](O)C3)[nH]c12	15.65	-18.31
Nc1nc(CNc2nccc(CCC(F)(F)F)n2)cs1	16.16	-19.95
CCC[C@@H]1CN(Cc2cnc(-c3cccs3)nc2)C[C@H]1C(=O)O	10.03	-1.487
O=C(O)C(F)(F)F.OCCN1CCC2(CCc3cc(-c4ccoc4)ccc32)CC1	-	-19.46
Cc1nn(C(C)C)cc1S(=O)(=O)N(C)Cc1nonc1C	15.96	-4.01
CC(Oc1ccccc1C(F)(F)F)C(=O)NCCNC(=O)C1CC1 (stereo not drawn)	16.39	-14.05
O=C(O)C(F)(F)F.[H][C@]12C[C@@H](Cn3cncn3)N(C(C)=O)[C@@]1([H])CCN(c1ncc(F)cn1)C2	-	-35.57
Cc1csc(NC(=O)c2cnc(C3CCCN(C)C3)cn2)n1 (stereo not drawn)	16.13	23.5
COc1ccccc1C1(CNc2cc(C(=O)N(C)C)ccn2)CC1	8.099	-16.36
Cn1ccnc1C(=O)N1CCC2(CC1)CC(Oc1cccnc1)CO2 (stereo not drawn)	8.125	-
Cn1nc2c(cc1=O)CN(CC(=O)Nc1ccc(Cl)cn1)CC2	15.04	18.81
CN(C)C(=O)N1CC2(CCNCC2)c2cc(Cl)ccc21.Cl	-	-16.94
Cc1cccc(CN2CCCC2c2cncc(Nc3nncs3)n2)c1 (stereo not drawn)	14.17	96.91
O=C(COC1CCCCC1)NS(=O)(=O)c1ccc2c(c1)OCCCO2	-1.714	-28.42
CN1CCN(Cc2cccnc2)Cc2cccnc21	10	-12.47
Cc1ncsc1CN1CC[C@H](O)[C@@H](n2cnc3c(N)ncnc32)CC1	-1.176	-19.23
N#Cc1cc(Cl)ccc1N1CCOC(C(N)=O)C1 (stereo not drawn)	2.174	-33.77
O=C(CCc1ccsc1)NC1CCN(c2cccc(F)c2)CC1	-6.7	-15.8
Cc1cc(C)n(C2CCCN(C(=O)c3ccnc(N(C)C)c3)C2)n1 (stereo not drawn)	7.801	-16.18
COCC(=O)Nc1ccc2c(c1)CN(C(=O)c1ccco1)CC2	3.753	-15.92
CC(C)n1cnc2c1C(C(=O)N1CCOCC1)N(CC1CC1)CC2 (stereo not drawn)	14.79	-
CN1CCC(N(CCc2ccccc2)C(=O)c2ccc(C#N)nc2)CC1	15.76	10.67
COc1ccc(OCc2noc(CN(C)C3CCS(=O)(=O)C3)n2)cc1 (stereo not drawn)	11.78	-192.6
Cc1ccc(CCNC(=O)N2CCC(Cc3cnn(C)c3)C2)cn1 (stereo not drawn)	2.428	-32.35
CC(=O)N1CCCc2cc(Nc3nccn(C)c3=O)ccc21	14.99	0.6864
CN(CC1(O)CCN(c2ccccn2)C1)C(=O)Cc1ccsc1 (stereo not drawn)	18.12	-10.31
COCCO[C@H]1CCN(c2ccc(C)nn2)[C@H]1Cc1cccnc1.O=C(O)C(F)(F)F.O=C(O)C(F)(F)F	-	25.77
Cn1cc(S(=O)(=O)Nc2ccc3[nH]c(C4CCC4)nc3c2)cn1	8.207	4.912
Cc1ncc(CN2CCC(N(C)Cc3noc(C4CC4)n3)C2)s1 (stereo not drawn)	11.58	2.538
O=C(O)C(F)(F)F.[H][C@@]12CCN(CCOCc3ccccc3)[C@]1([H])CC[C@@H](C(=O)N1CCCC1)O2	-	-14.17
COc1ccc(C(=O)CCc2nc(C3CC3)no2)cc1F	14.93	33.45
Cc1cc(C)cc(N2CCN(C(=O)CCN3C[C@@H]4CC[C@H]3C4)CC2=O)c1	19.58	-
CC(=O)N1CCN(C(=O)CCNc2snc(Cl)c2C#N)CC1	10.86	-2.884
COCCN1CC=C(c2cccc(OC)c2)CC1	7.67	26.29
c1cc(-c2cn[nH]c2)ccc1CN1CCNCC1	19.87	3.85
CCN1CCN(C(=O)c2csnn2)c2ccccc21	1.718	18.4
CN(C)C(=O)c1nn(C)c2c1CN(Cc1ccc(F)cc1)C2.O=C(O)C(F)(F)F	-	-35.3
Cc1nc(C)n(CC2CN(CCOc3ccccc3F)CCO2)n1 (stereo not drawn)	9.091	-2.594
COCCOC[C@]1(CNCc2cccc(OC)c2)C[C@@H](O)[C@@H](O)C1.Cl	-	4.312
CSC(C)(C)CNC(=O)Nc1cccc(-c2nccn2C)c1	10.11	5.308

The last 7 entries again:

structure,LdMetRS,Mtb heat-shock
COCCN1CC=C(c2cccc(OC)c2)CC1,7.67,26.29
c1cc(-c2cn[nH]c2)ccc1CN1CCNCC1,19.87,3.85
CCN1CCN(C(=O)c2csnn2)c2ccccc21,1.718,18.4
CN(C)C(=O)c1nn(C)c2c1CN(Cc1ccc(F)cc1)C2.O=C(O)C(F)(F)F,-,-35.3
Cc1nc(C)n(CC2CN(CCOc3ccccc3F)CCO2)n1 (stereo not drawn),9.091,-2.594
COCCOC[C@]1(CNCc2cccc(OC)c2)C[C@@H](O)[C@@H](O)C1.Cl,-,4.312
CSC(C)(C)CNC(=O)Nc1cccc(-c2nccn2C)c1,10.11,5.308